Measured values taken from publication PMC5642495, “Characterization of a novel androgen receptor (AR) coregulator RIPK1 and related chemicals that suppress AR-mediated prostate cancer growth via peptide and chemical screening” (Oncotarget, 2017).
Results are given in words; binding and its absence hold for the method and conditions named. In cells and extracts the contact can be indirect. Binding calls can cover weak binding; strength is not graded here.

Amino acid sequences for entries named in this document (tags omitted). A change or cut given only in a name is not applied to a line headed by its entry.
UniProt P10275: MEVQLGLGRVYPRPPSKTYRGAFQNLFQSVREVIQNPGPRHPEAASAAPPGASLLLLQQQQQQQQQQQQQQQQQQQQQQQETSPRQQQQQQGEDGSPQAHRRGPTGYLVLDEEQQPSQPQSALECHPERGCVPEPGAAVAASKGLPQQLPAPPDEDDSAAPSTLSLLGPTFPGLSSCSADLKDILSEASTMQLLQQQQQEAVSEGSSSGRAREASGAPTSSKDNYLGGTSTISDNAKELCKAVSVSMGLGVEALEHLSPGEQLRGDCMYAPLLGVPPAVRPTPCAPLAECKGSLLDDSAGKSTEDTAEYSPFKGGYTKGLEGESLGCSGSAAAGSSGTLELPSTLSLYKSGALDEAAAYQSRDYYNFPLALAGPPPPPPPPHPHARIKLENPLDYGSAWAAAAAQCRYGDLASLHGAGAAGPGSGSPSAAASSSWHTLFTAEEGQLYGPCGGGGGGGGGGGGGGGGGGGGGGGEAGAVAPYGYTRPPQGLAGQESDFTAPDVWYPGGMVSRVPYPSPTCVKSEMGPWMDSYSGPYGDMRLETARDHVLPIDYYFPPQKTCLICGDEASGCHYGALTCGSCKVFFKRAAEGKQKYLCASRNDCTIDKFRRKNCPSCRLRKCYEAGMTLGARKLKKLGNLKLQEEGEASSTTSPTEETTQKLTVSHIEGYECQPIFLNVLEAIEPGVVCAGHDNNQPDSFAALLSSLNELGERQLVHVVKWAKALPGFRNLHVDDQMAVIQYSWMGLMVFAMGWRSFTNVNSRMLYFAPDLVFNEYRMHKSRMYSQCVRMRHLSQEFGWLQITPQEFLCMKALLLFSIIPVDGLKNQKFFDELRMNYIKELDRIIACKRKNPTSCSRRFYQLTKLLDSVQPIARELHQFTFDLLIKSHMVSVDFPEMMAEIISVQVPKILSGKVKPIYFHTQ
UniProt Q13546: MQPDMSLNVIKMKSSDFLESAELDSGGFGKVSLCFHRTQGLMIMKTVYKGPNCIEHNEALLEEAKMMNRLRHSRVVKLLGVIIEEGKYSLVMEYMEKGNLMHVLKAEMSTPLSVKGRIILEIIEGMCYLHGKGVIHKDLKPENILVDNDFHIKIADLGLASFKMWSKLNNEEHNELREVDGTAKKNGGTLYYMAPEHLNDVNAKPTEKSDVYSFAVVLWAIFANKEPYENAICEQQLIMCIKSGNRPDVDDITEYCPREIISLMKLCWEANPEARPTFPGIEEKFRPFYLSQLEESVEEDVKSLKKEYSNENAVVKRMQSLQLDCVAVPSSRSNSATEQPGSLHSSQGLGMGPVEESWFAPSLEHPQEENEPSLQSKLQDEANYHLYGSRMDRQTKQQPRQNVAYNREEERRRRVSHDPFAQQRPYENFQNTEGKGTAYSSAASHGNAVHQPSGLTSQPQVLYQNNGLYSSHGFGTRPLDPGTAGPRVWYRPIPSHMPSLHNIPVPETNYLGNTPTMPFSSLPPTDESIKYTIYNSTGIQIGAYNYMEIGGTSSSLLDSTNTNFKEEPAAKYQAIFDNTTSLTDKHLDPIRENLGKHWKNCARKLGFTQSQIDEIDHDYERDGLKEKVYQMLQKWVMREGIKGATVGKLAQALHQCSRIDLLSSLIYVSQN

Key:
[1] = biological target: AR DBD-LBD, C-terminal region of AR (GST pull-down assay) (human) (UniProt P10275); experiment: pull-down; GST pull-down; which partner carried GST and the conditions are not told (refs 8, 16)
[2] = biological target: AR N-terminal region (GST pull-down assay) (human) (UniProt P10275); experiment: as above

RIPK1 (as used in the GST pull-down assay) (from UniProt Q13546 1-671) (enzyme)
binding [1]: binds
binding [2]: binds
